{"source": "patent US12208080B2", "about": "“Compositions and methods for modulation of extracellular vesicle release and treatment of neurological disorders” (GEORGE MASON RESEARCH FOUNDATION, INC., priority 2018, dated 2025)", "key": {"VPS4": {"tested_on": "VPS4", "test": "Biotinylated tetracycline pull-down from U1 whole cell extracts, Western blot for VPS4", "type": "binding", "conditions": "biotinylated drug; for increase in the amount of VPS4 bound over the lane 3 control (densitometry): FIG. 5C; for amount of VPS4 bound, in comparison to the control: FIG. 5C lanes 4 and 5"}, "[1]": {"tested_on": "ESCRT pathway proteins (VPS4)", "test": "Western blot of ESCRT pathway proteins in U1 whole cell extracts", "type": "cell-based", "conditions": "U1 pretreated with cART (45 μM) 3 days, then cART and tetracycline antibiotic (10 nM) 5 days; FIG. 5A", "experimental": "U1 cells were pretreated with cART (45 μM) for 3 days followed by an additional dose of cART and tetracycline antibiotics (10 nM) for 5 days. Cells were lysed, and extracts were used for Western blot analysis for ESCRT proteins [ESCRT-1 (TSG101), -11 (EAP20, EAP45), -III (CHMP6), and exit (VPS4)] and Actin levels. […]\nU1 cells were treated with a titration of ethylene glycol-bis(p-aminoethyl ether)-N,N,N′,N′-tetraacetic acid (EGTA) (0.1, 1, and 10 μM) for 5 days and whole cell extracts were analyzed by Western blot for ESCRT pathway proteins and Actin.\nTetracycline class antibiotics including tetracycline, oxytetracycline, minocycline, doxycycline, methacycline, and demeclocycline have the potential to mitigate EV-associated pathogenesis by also modulating EV release. […] The tetracycline antibiotic family are chelators of divalent cations, including Ca2+ and Mg2+. Therefore, Applicant also tried to determine whether the chelating property of Oxytetracycline could possibly be responsible for the manipulation of the ESCRT pathway proteins levels."}, "[2]": {"tested_on": "autophagy proteins (p62, LC3, ATG12-ATG5, ATG12, Beclin-1) in U1 cells", "test": "Autophagy protein profile, CBD versus autophagy drugs, in U1 cells and their EVs (Western blot)", "type": "cell-based", "conditions": "5 days, Rapamycin 50 nM, INK128 50 nM", "experimental": "FIGS. 18A-18B are gels showing CBD promotes autophagy turnover, resulting in a decrease in extracellular autophagosomal secretion. A) U1 cells (1×10^6) were treated±CBD (10 μM) for the following incubation periods: 0, 6, 24, and 48 hours. Cells were pelleted and lysed, exosomes from supernatants were enriched with NT80/82 beads overnight at 4° C. Samples were run through SDS-PAGE and western blotted for autophagy proteins (p62 and LC3), and Actin. B) U1 cells (1×10^6) were treated±10 μM CBD (every day), Rapamycin (50 nM), INK128 (50 nM), Bafilomycin A1 (50 nM), SB 203580 (20 μM), Wortmannin (2 nM) for a 5-day incubation period. Cells were pelleted and lysed, exosomes from supernatants were enriched using NT80/82 beads overnight at 4° C. Samples were run through SDS-PAGE and western blotted for autophagy proteins (p62, LC3, ATG12-ATG5, ATG12, Beclin-1), and Actin.\nFIGS. 21A-21K are graphs showing normalized densitometry analysis of CBD and autophagy drug treatment on HIV-1 infected monocytes. Intracellular (A) p62, (B) LC3 I, (C) LC3 II, (D) ATG12-ATG5 complex, (E) ATG12, and (F) Beclin-1, and extracellular (G) p62, (H) LC3 I, (I) LC3 II, (J) ATG12-ATG5 complex, and (K) Beclin-1 densitometry counts were calculated from the Western blot data in FIG. 5B, normalized to respective intracellular and extracellular Actin levels, and plotted.\nTo determine the specific points at which CBD inhibits intracellular and extracellular autophagosome formation and secretion, we compared CBD treatment of U1 monocytes with known inhibitors of different points in the autophagy pathway. Cell viability was assessed among a panel of titrated autophagy drugs and the least toxic concentration per drug was utilized (FIG. 20). We treated U1 cells with CBD (10 μM) every day, Rapamycin (50 nM), INK128 (50 nM), Bafilomycin A1 (50 nM), SB 203580 (20 μM), or Wortmannin (2 nM) for 5 days. Our rationale for using these drugs was that they regulate different steps of autophagy including nucleation inhibition by inhibiting MTOR activity (Rapamycin, INK128) or by inhibiting pre-autophagosomal VPS34 complex activity (Wortmannin, SB 203580), and autophagosome-lysosome fusion inhibition (Bafilomycin A1). Therefore, a side-by-side comparison to CBD would potentially allow for a better definition of which step of autophagosome formation is primarily regulated by CBD. U1 cells were treated with the autophagy regulators and harvested along with their corresponding supernatants for further analysis using Western blot against p62, LC3, ATG12-ATG5 complex, free ATG12, Beclin-1, and Actin. Results in FIG. 18B (intracellular proteins, top panel) show autophagy protein profiles associated with the various autophagy regulators. […] The corresponding supernatants were enriched for EVs and also analyzed for the presence of autophagy proteins."}, "[3]": {"conditions": "CBD 10 μM every day, FIG. 18B top panel"}, "[4]": {"conditions": "CBD 10 μM, Bafilomycin A1 50 nM, SB 203580 20 μM, Wortmannin 2 nM, lower panel"}}, "note": "At least one structure is not confirmed: it was looked up by name or label, or the drawing left a doubt.", "data": [{"molecule": "C[C@H]1c2cccc(O)c2C(=O)C2=C(O)[C@]3(O)C(=O)C(C(N)=O)=C(O)[C@@H](N(C)C)[C@@H]3[C@@H](O)[C@@H]21", "note": "[doxycycline]", "values": [{"measurement": "increase in the amount of VPS4 bound over the lane 3 control (densitometry)", "setting": "VPS4", "result": 17, "unit": "%"}, {"measurement": "amount of VPS4 bound, in comparison to the control", "setting": "VPS4", "result": "increase in the amount of VPS4 bound"}]}, {"molecule": "C=C1c2cccc(O)c2C(=O)C2=C(O)[C@]3(O)C(=O)C(C(N)=O)=C(O)[C@@H](N(C)C)[C@@H]3[C@@H](O)[C@H]12", "note": "[methacycline]", "values": [{"measurement": "increase in the amount of VPS4 bound over the lane 3 control (densitometry)", "setting": "VPS4", "result": 76, "unit": "%"}, {"measurement": "amount of VPS4 bound, in comparison to the control", "setting": "VPS4", "result": "increase in the amount of VPS4 bound"}]}, {"molecule": "CN(C)[C@@H]1C(O)=C(C(N)=O)C(=O)[C@@]2(O)C(O)=C3C(=O)c4c(O)cccc4[C@@](C)(O)[C@H]3[C@H](O)[C@@H]12", "note": "[oxytetracycline]", "values": [{"measurement": "VPS4 protein level", "setting": "[1]", "result": "downregulates VPS4"}]}, {"molecule": "CO[C@H]1C[C@@H]2CC[C@@H](C)[C@@](O)(O2)C(=O)C(=O)N2CCCC[C@H]2C(=O)O[C@H]([C@H](C)C[C@@H]2CC[C@@H](O)[C@H](OC)C2)CC(=O)[C@H](C)/C=C(\\C)[C@@H](O)[C@@H](OC)C(=O)[C@H](C)C[C@H](C)/C=C/C=C/C=C/1C", "note": "[rapamycin, Rapamycin]", "values": [{"measurement": "intracellular ATG12-ATG5", "setting": "[2]; [3]", "result": "low levels"}, {"measurement": "intracellular Beclin-1", "setting": "[2]; [3]", "result": "high levels"}, {"measurement": "intracellular LC3 I", "setting": "[2]; [3]", "result": "low levels"}, {"measurement": "EV-associated LC3 I", "setting": "[2]; [4]", "result": "reduction"}, {"measurement": "EV-associated p62", "setting": "[2]; [4]", "result": "reduction"}]}]}
